This is an account of results in publication PMC6613885.

Amino acid sequences for entries named in this document (tags omitted). Residues count along the entry.
UniProt Q9BXW4, residues 1-126: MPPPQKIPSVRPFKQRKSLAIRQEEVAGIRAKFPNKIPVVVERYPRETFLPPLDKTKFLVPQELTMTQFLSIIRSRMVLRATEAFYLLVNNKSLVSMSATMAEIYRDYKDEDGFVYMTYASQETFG
UniProt P60520: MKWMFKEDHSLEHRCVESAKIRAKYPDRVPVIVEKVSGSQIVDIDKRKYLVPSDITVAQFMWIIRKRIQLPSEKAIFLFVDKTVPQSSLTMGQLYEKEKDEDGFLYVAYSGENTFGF
UniProt Q6ZNE5: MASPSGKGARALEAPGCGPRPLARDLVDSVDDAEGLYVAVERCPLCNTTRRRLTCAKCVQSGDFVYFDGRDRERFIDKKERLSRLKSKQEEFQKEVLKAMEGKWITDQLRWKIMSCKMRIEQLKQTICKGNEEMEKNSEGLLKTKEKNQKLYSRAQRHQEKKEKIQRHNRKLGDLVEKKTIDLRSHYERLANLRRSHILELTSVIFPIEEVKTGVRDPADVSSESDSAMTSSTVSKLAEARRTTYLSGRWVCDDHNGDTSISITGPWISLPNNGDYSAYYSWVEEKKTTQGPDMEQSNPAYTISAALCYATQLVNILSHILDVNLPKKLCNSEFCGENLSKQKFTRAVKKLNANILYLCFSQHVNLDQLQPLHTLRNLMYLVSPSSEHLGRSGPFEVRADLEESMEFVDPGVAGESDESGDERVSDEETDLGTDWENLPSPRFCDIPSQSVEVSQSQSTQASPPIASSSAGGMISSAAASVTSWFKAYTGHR

Results are given in words; binding and its absence hold for the method and conditions named. In cells and extracts the contact can be indirect. Some results given as binding are weak or reduced against the parent protein; the word gives no strength.

Assay [1] deals with GST-LC3C (UniProt Q9BXW4). Kind of assay: pull-down; GST-Atg8 homologs on glutathione-Sepharose beads; 35S-labelled in vitro translated Myc-tagged proteins; 2 h at 4°C in NETN buffer (50 mM Tris pH 8.0, 100 mM NaCl, 1 mM EDTA, 0.5% Nonidet P-40); autoradiography; only the target purified.
Assay [2] concerns the target GST-GABARAPL2 (UniProt P60520). The description is as above.

As to “Myc-tagged ATG14, full-length, in vitro translated (from UniProt Q6ZNE5 1-492)”, the binding result in assay [1] and in assay [2] was “binds” throughout.
